Results deposited as PubChem BioAssay AID686938 (Drosophila RNAi Screening Center, 2013)

Purpose: 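Knock-downs reducing store-operated calcium influx in Drosophila cells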 (primary screen)
Cells: Drosophila S2R+ cells
Knock-down reagent: long dsRNA against Drosophila genes, about 0.25 µg dsRNA per well, roughly 10,000 cells
Timing: 5 days of knock-down before the calcium assay
Treatment: thapsigargin (SERCA pump blocker) to empty calcium stores; entry signal taken 4 min after adding it
Measured: 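Duplicate raw fluo-4 intensities per well from a plate reader, at rest and four minutes after thapsigargin emptied calcium stores; entry-to-rest ratio filled for only some wells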
Scale: calcium entry signal: higher = stronger calcium signal after store depletion; resting calcium signal: higher = higher resting calcium signal
Rule for the call: 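Hit if the duplicate-averaged plate z-score for entry over resting signal is under −3; wells with weak total dye signal (Fmax z < −2) or more than 5 off-targets removed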
Calls: active = strongly reduced calcium entry; inactive = no strong reduction
The screen tested about 23,000 reagents; below is a random part of those with a known target gene and a result. Of all reagents, 75 (0.33%) were called active. 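Raw plate signals without normalisation; calls rest on plate z-scores that were not deposited; ratio present for only 364 wells.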 A number with no mark means an inactive call. A plus sign joins genes that one reagent is predicted to hit. Not given: the dose of the treatment.

gene knocked down,amplicon,"calcium entry signal, replicate 1 (fluorescence units)","calcium entry signal, replicate 2 (fluorescence units)","resting calcium signal, replicate 1 (fluorescence units)","resting calcium signal, replicate 2 (fluorescence units)"
porin,DRSC03594,5.15e7,,2.28e7,
IscU (Iron-sulfur cluster assembly enzyme),DRSC16572,4.79e7,3.08e7,2.26e7,1.59e7
CG3558,DRSC00615,3.94e7,,2.41e7,
disco-r (disco-related),DRSC20173,3.48e7,3.45e7,1.79e7,1.53e7
disco-r (disco-related),DRSC20174,3.14e7,3.04e7,1.62e7,1.34e7
Pex14 (Peroxin 14),DRSC11754,2.88e7,4.29e7,1.37e7,1.85e7
OS9 + Hf,DRSC03392,4.94e7,,2.45e7,
tap (target of Poxn),DRSC11402,4.54e7,5.12e7,2.04e7,2.36e7
CG3862,DRSC00631,4.16e7,,2.13e7,
disco (disconnected),DRSC20323,5.53e7,3.47e7,2.44e7,1.44e7
CG15705,DRSC06576,4.51e7,4.61e7,1.95e7,2.17e7
Drice (Death related ICE-like caspase),DRSC16715,3.55e7,4.23e7,1.67e7,2.05e7
dcma (decima),DRSC00246,3.91e7,4.05e7,2.06e7,1.93e7
dcma (decima),DRSC00338,3.47e7,3.06e7,1.70e7,1.50e7
CG14958,DRSC08417,2.73e7,2.62e7,1.73e7,1.38e7
CG15882,DRSC19735,5.50e7,4.54e7,2.43e7,1.92e7
Cpr76Ba (Cuticular protein 76Ba),DRSC11060,2.35e7,3.76e7,1.18e7,1.74e7
CAHbeta (Carbonic anhydrase beta),DRSC14449,3.04e7,3.49e7,1.27e7,1.55e7
Gr5a (Gustatory receptor 5a),DRSC18085,2.81e7,4.00e7,1.39e7,1.71e7
Ama (Amalgam),DRSC12489,3.63e7,4.15e7,1.52e7,1.94e7
CG5768,DRSC15870,4.15e7,2.63e7,1.76e7,1.37e7
Tsp96F (Tetraspanin 96F),DRSC14147,2.27e7,2.59e7,1.12e7,1.39e7
CG17477,DRSC15239,3.68e7,4.10e7,1.70e7,6.20e7
lncRNA:CR42735 (retired record),DRSC00921,4.23e7,4.34e7,2.04e7,2.01e7
Ucp4A (Uncoupling protein 4A),DRSC19996,3.28e7,3.16e7,1.65e7,1.66e7
Usp20-33 (Ubiquitin specific protease 20/33),DRSC07196,4.16e7,4.45e7,1.79e7,2.01e7

2 entries already listed, sorted by “resting calcium signal, replicate 2 (fluorescence units)”, low to high:
gene knocked down,amplicon,"calcium entry signal, replicate 1 (fluorescence units)","calcium entry signal, replicate 2 (fluorescence units)","resting calcium signal, replicate 1 (fluorescence units)","resting calcium signal, replicate 2 (fluorescence units)"
CG5768,DRSC15870,4.15e7,2.63e7,1.76e7,1.37e7
Ama (Amalgam),DRSC12489,3.63e7,4.15e7,1.52e7,1.94e7

The listing continues:
gene knocked down,amplicon,"calcium entry signal, replicate 1 (fluorescence units)","calcium entry signal, replicate 2 (fluorescence units)","resting calcium signal, replicate 1 (fluorescence units)","resting calcium signal, replicate 2 (fluorescence units)"
Rcd7 (Reduction in Cnn dots 7),DRSC10100,3.13e7,4.72e7,1.47e7,2.10e7
CG10638,DRSC09762,2.84e7,2.95e7,1.60e7,1.31e7
CG4622,DRSC04479,4.30e7,,2.24e7,
MME1 (Mitochondrial Magnesium Exporter 1),DRSC02714,4.69e7,,2.16e7,
Ugt35B1 (UDP-glycosyltransferase family 35 member B1),DRSC16893,4.46e7,4.48e7,1.77e7,2.00e7
IA-2 (IA-2 protein tyrosine phosphatase),DRSC00304,4.88e7,6.33e7,2.85e7,2.86e7
IA-2 (IA-2 protein tyrosine phosphatase),DRSC00652,4.34e7,,2.54e7,
IA-2 (IA-2 protein tyrosine phosphatase),DRSC23335,3.42e7,3.66e7,1.89e7,1.60e7
CG17221,DRSC00487,3.04e7,2.27e7,1.52e7,1.15e7
Vajk2,DRSC02540,5.18e7,3.66e7,2.27e7,1.62e7
CG6675,DRSC03735,4.91e7,5.39e7,2.39e7,2.37e7
CG3198,DRSC18292,3.26e7,4.16e7,1.74e7,1.99e7
CG14664,DRSC12250,3.83e7,2.21e7,1.81e7,9.37e6
5PtaseI (Inositol polyphosphate-5-phosphatase type I),DRSC16269,4.01e7,4.18e7,1.80e7,1.68e7
5PtaseI (Inositol polyphosphate-5-phosphatase type I),DRSC22090,3.92e7,4.83e7,1.80e7,2.80e7
